# Laboratory results published in the supplement of paper PMC8728848.
# The other results are listed elsewhere or left out.
# B1: Pwp1 (Candida glabrata) (protein)
# chain: MGSSHHHHHHSSGLVPRGSHMASANPISITNVCQFPDNWARTAGFQATTVRLGLTIASNTYKELLNYPGLFNFATQKATVTQPNFSISGFPFFTGLYGLTVWPINLLVELQGYFVPPESGNYTFTLQGSDDAAILFFANPSTFACGSQNDWPQPREADITVTDTLVPSRTLYLVKGVAYPIRIAYYNGSGDGKLNVSFKDPSGTTHTDWKGYVWQYSNTCSTCTYT
# Tests used:
# Experiment in all cases: glycan array binding signal (z-score within array); higher = stronger binding
# Conditions in all cases: glycan notation: IUPAC condensed, linker removed
# [1] = target: Gal(b1-3)GlcNAc(b1-2)Man(a1-3)[Gal(b1-3)GlcNAc(b1-2)Man(a1-6)]Man(b1-4)GlcNAc(b1-4)[Fuc(a1-6)]GlcNAc
# Procedure, shortened: (§1)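 Glycan array data were curated from 3228 arrays in the Consortium for Functional Glycomics database and kept only where the protein sequence was available. Glycan names were converted to IUPAC-condensed notation, and columns mapping to the same glycan were averaged. The binding signal is a within-array Z-score, averaged across arrays of the same protein sequence at different concentrations or buffers and across linkers. Negative Z-scores can be read as non-binding.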
# [2] = target: Gal(b1-3)GlcNAc(b1-2)Man(a1-3)[GlcNAc(b1-4)][Gal(b1-3)GlcNAc(b1-2)Man(a1-6)]Man(b1-4)GlcNAc(b1-4)GlcNAc
# Procedure, shortened: as §1
# [3] = target: Gal(b1-3)GlcNAc(b1-2)[Gal(b1-3)GlcNAc(b1-6)]Man(a1-6)[Gal(b1-3)GlcNAc(b1-2)Man(a1-3)]Man(b1-4)GlcNAc(b1-4)GlcNAc
# Procedure, shortened: as §1
# [4] = target: Gal(b1-3)GlcNAc(b1-3)Gal(b1-3)GlcNAc
# Procedure, shortened: as §1
# [5] = target: Gal(b1-3)GlcNAc(b1-3)Gal(b1-4)Glc
# Procedure, shortened: as §1
# [6] = target: Gal(b1-3)GlcNAc(b1-3)Gal(b1-4)GlcNAc
# Procedure, shortened: as §1
# [7] = target: Gal(b1-3)GlcNAc(b1-3)Gal(b1-4)GlcNAc(b1-2)Man(a1-3)[Gal(b1-3)GlcNAc(b1-3)Gal(b1-4)GlcNAc(b1-2)Man(a1-6)]Man(b1-4)GlcNAc(b1-4)GlcNAc
# Procedure, shortened: as §1
# [8] = target: Gal(b1-3)GlcNAc(b1-3)Gal(b1-4)GlcNAc(b1-2)[Gal(b1-3)GlcNAc(b1-3)Gal(b1-4)GlcNAc(b1-6)]Man(a1-6)[Gal(b1-3)GlcNAc(b1-3)Gal(b1-4)GlcNAc(b1-2)Man(a1-3)]Man(b1-4)GlcNAc(b1-4)[Fuc(a1-6)]GlcNAc
# Procedure, shortened: as §1
# [9] = target: Gal(b1-3)GlcNAc(b1-3)Gal(b1-4)GlcNAc(b1-3)Gal(b1-4)GlcNAc(b1-2)[Gal(b1-3)GlcNAc(b1-3)Gal(b1-4)GlcNAc(b1-3)Gal(b1-4)GlcNAc(b1-6)]Man(a1-6)[Gal(b1-3)GlcNAc(b1-3)Gal(b1-4)GlcNAc(b1-3)Gal(b1-4)GlcNAc(b1-2)Man(a1-3)]Man(b1-4)GlcNAc(b1-4)[Fuc(a1-6)]GlcNAc
# Procedure, shortened: as §1
# [10] = target: Gal(b1-3)GlcNAc(b1-3)Gal(b1-4)GlcNAc(b1-6)[Gal(b1-3)GlcNAc(b1-3)]Gal(b1-4)Glc
# Procedure, shortened: as §1
# [11] = target: Gal(b1-3)GlcNAc(b1-3)Gal(b1-4)[Fuc(a1-3)]GlcNAc
# Procedure, shortened: as §1
# [12] = target: Gal(b1-3)GlcNAc(b1-3)Gal(b1-4)[Fuc(a1-3)]GlcNAc(b1-6)[Gal(b1-3)GlcNAc(b1-3)]Gal(b1-4)Glc
# Procedure, shortened: as §1
# [13] = target: Gal(b1-3)GlcNAc(b1-3)GalNAc
# Procedure, shortened: as §1
# [14] = target: Gal(b1-3)GlcNAc(b1-6)Gal(b1-4)GlcNAc
# Procedure, shortened: as §1
# [15] = target: Gal(b1-3)GlcNAc(b1-6)GalNAc
# Procedure, shortened: as §1
# [16] = target: Gal(b1-3)GlcNAc(b1-6)[Gal(b1-3)]GalNAc
# Procedure, shortened: as §1
# [17] = target: Gal(b1-3)GlcNAc6S
# Procedure, shortened: as §1
# [18] = target: Gal(b1-3)[Fuc(a1-4)]GlcNAc
# Procedure, shortened: as §1
# [19] = target: Gal(b1-3)[Fuc(a1-4)]GlcNAc(b1-2)Man
# Procedure, shortened: as §1
# [20] = target: Gal(b1-3)[Fuc(a1-4)]GlcNAc(b1-2)Man(a1-3)[Gal(b1-3)[Fuc(a1-4)]GlcNAc(b1-2)Man(a1-6)]Man(b1-4)GlcNAc(b1-4)[Fuc(a1-6)]GlcNAc
# Procedure, shortened: as §1
# [21] = target: Gal(b1-3)[Fuc(a1-4)]GlcNAc(b1-3)Gal(b1-3)[Fuc(a1-4)]GlcNAc
# Procedure, shortened: as §1
# [22] = target: Gal(b1-3)[Fuc(a1-4)]GlcNAc(b1-3)Gal(b1-4)[Fuc(a1-3)]GlcNAc
# Procedure, shortened: as §1
# [23] = target: Gal(b1-3)[Fuc(a1-4)]GlcNAc(b1-6)GalNAc
# Procedure, shortened: as §1
# [24] = target: Gal(b1-3)[GlcNAc(b1-6)]GalNAc
# Procedure, shortened: as §1
# [25] = target: Gal(b1-3)[Neu5Ac(a2-6)]GalNAc
# Procedure, shortened: as §1
# [26] = target: Gal(b1-3)[Neu5Ac(a2-6)]GlcNAc(b1-4)Gal(b1-4)Glc
# Procedure, shortened: as §1
# [27] = target: Gal(b1-3)[Neu5Ac(b2-6)]GalNAc
# Procedure, shortened: as §1
# [28] = target: Gal(b1-4)Gal
# Procedure, shortened: as §1
# [29] = target: Gal(b1-4)GalNAc(a1-3)[Fuc(a1-2)]Gal(b1-4)GlcNAc
# Procedure, shortened: as §1
# [30] = target: Gal(b1-4)GalNAc(b1-3)[Fuc(a1-2)]Gal(b1-4)GlcNAc
# Procedure, shortened: as §1
# [31] = target: Gal(b1-4)Glc
# Procedure, shortened: as §1
# [32] = target: Gal(b1-4)Glc6S
# Procedure, shortened: as §1
# [33] = target: Gal(b1-4)GlcNAc
# Procedure, shortened: as §1
# [34] = target: Gal(b1-4)GlcNAc(a1-6)Gal(b1-4)GlcNAc
# Procedure, shortened: as §1
# [35] = target: Gal(b1-4)GlcNAc(b1-2)Man
# Procedure, shortened: as §1
# [36] = target: Gal(b1-4)GlcNAc(b1-2)Man(a1-3)Man(b1-4)GlcNAc(b1-4)GlcNAc
# Procedure, shortened: as §1
# [37] = target: Gal(b1-4)GlcNAc(b1-2)Man(a1-3)[Gal(b1-4)GlcNAc(b1-2)Man(a1-6)]Man(b1-4)GlcNAc(b1-4)GlcNAc
# Procedure, shortened: as §1
# [38] = target: Gal(b1-4)GlcNAc(b1-2)Man(a1-3)[Gal(b1-4)GlcNAc(b1-2)Man(a1-6)]Man(b1-4)GlcNAc(b1-4)[Fuc(a1-6)]GlcNAc
# Procedure, shortened: as §1
# [39] = target: Gal(b1-4)GlcNAc(b1-2)Man(a1-3)[Gal(b1-4)GlcNAc(b1-2)Man(a1-6)][Gal(b1-4)GlcNAc(b1-4)]Man(b1-4)GlcNAc(b1-4)[Fuc(a1-6)]GlcNAc
# Procedure, shortened: as §1
# [40] = target: Gal(b1-4)GlcNAc(b1-2)Man(a1-3)[Gal(b1-4)GlcNAc(b1-2)Man(a1-6)][GlcNAc(b1-4)]Man(b1-4)GlcNAc(b1-4)[Fuc(a1-6)]GlcNAc
# Procedure, shortened: as §1
# [41] = target: Gal(b1-4)GlcNAc(b1-2)Man(a1-3)[GlcNAc(b1-2)Man(a1-6)]Man(b1-4)GlcNAc(b1-4)GlcNAc
# Procedure, shortened: as §1
# [42] = target: Gal(b1-4)GlcNAc(b1-2)Man(a1-3)[GlcNAc(b1-4)][Gal(b1-4)GlcNAc(b1-2)Man(a1-6)]Man(b1-4)GlcNAc(b1-4)GlcNAc
# Procedure, shortened: as §1
# [43] = target: Gal(b1-4)GlcNAc(b1-2)Man(a1-3)[Man(a1-6)]Man(b1-4)GlcNAc(b1-4)GlcNAc
# Procedure, shortened: as §1
# [44] = target: Gal(b1-4)GlcNAc(b1-2)Man(a1-6)Man(b1-4)GlcNAc(b1-4)GlcNAc
# Procedure, shortened: as §1
# [45] = target: Gal(b1-4)GlcNAc(b1-2)Man(a1-6)[GlcNAc(b1-2)Man(a1-3)]Man(b1-4)GlcNAc(b1-4)GlcNAc
# Procedure, shortened: as §1
binder,measurement,setting,value
B1,glycan array binding signal (z-score),[1],-1.5
same,glycan array binding signal (z-score),[2],-0.457
same,glycan array binding signal (z-score),[3],-1.77
same,glycan array binding signal (z-score),[4],-1.43
same,glycan array binding signal (z-score),[5],0.63
same,glycan array binding signal (z-score),[6],1.46
same,glycan array binding signal (z-score),[7],0.642
same,glycan array binding signal (z-score),[8],-0.463
same,glycan array binding signal (z-score),[9],0.287
same,glycan array binding signal (z-score),[10],-0.984
same,glycan array binding signal (z-score),[11],0.169
same,glycan array binding signal (z-score),[12],0.649
same,glycan array binding signal (z-score),[13],-1.23
same,glycan array binding signal (z-score),[14],-1.46
same,glycan array binding signal (z-score),[15],0.659
same,glycan array binding signal (z-score),[16],0.884
same,glycan array binding signal (z-score),[17],0.568
same,glycan array binding signal (z-score),[18],0.076
same,glycan array binding signal (z-score),[19],0.097
same,glycan array binding signal (z-score),[20],0.284
same,glycan array binding signal (z-score),[21],1.23
same,glycan array binding signal (z-score),[22],0.748
same,glycan array binding signal (z-score),[23],-0.308
same,glycan array binding signal (z-score),[24],-0.264
same,glycan array binding signal (z-score),[25],0.849
same,glycan array binding signal (z-score),[26],0.479
same,glycan array binding signal (z-score),[27],1.04
same,glycan array binding signal (z-score),[28],0.124
same,glycan array binding signal (z-score),[29],1.45
same,glycan array binding signal (z-score),[30],0.985
same,glycan array binding signal (z-score),[31],0.891
same,glycan array binding signal (z-score),[32],-0.615
same,glycan array binding signal (z-score),[33],0.505
same,glycan array binding signal (z-score),[34],0.197
same,glycan array binding signal (z-score),[35],-0.208
same,glycan array binding signal (z-score),[36],1.04
same,glycan array binding signal (z-score),[37],-0.053
same,glycan array binding signal (z-score),[38],-1.58
same,glycan array binding signal (z-score),[39],0.373
same,glycan array binding signal (z-score),[40],0.876
same,glycan array binding signal (z-score),[41],1.15
same,glycan array binding signal (z-score),[42],0.727
same,glycan array binding signal (z-score),[43],0.768
same,glycan array binding signal (z-score),[44],0.264
same,glycan array binding signal (z-score),[45],0.335

# In a second layout: results already given
binder	measurement	setting	value
B1	glycan array binding signal (z-score)	[25]	0.849
same	glycan array binding signal (z-score)	[26]	0.479
same	glycan array binding signal (z-score)	[27]	1.04
